# Experimental data published in PubChem BioAssay AID504444 (National Center for Advancing Translational Sciences (NCATS), 2011).
# Among all 360,000 compounds or so, about 7,500 (2.1%) were called active. The inconclusive results got no clear call from the source; some entries with a clear call stand among them for comparison. The call rests on the fitted dose curve; in most records, active means well fitted inhibition curve with a large enough effect; inconclusive means small, poorly fitted or top-dose-only effect, or effect the other way; inactive means flat fitted curve, though single readings scatter. A potency beside an inconclusive call is a rough fit, not a confirmed value.
# Assay: Nrf2 qHTS screen for inhibitors; further: nearly all actives have a fitted effect of over 60% in size
# Conditions: A549 ARE-Fluc reporter, luciferase luminescence, 18-24 h; series mostly up to 46 µM
# Method in brief: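 Nrf2 function is reported as luminescence of an ARE-controlled luciferase in A549 cells. Compounds were tested at several concentrations, and a CellTiter-Fluor read on the same wells flagged cytotoxicity.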
# Potency means the concentration at half of the fitted maximal effect.
row,Structure (SMILES),Potency
1,COc1cc(/C=N/n2cnn(Cc3ccccc3Cl)c2=S)cc(OC)c1OC,inactive
2,Cc1cc2c(s1)c1cnn(Cc3ccccc3F)c(=O)c1n2Cc1ccccc1F,inactive
3,COc1cccc(NC(=O)C2CCCN(c3ncnc4onc(-c5ccc(F)cc5)c34)C2)c1 (centres undefined),inactive
4,C=C(C)CN(CC)C(=O)c1ccc(OC2CCN(S(=O)(=O)N(C)C)CC2)cc1,"inconclusive: 14.6 µM [falling, single point]"
5,CCOc1ccccc1C(=O)NCC(=O)NNC(=O)CN(C)S(=O)(=O)c1ccc(Cl)cc1,"inconclusive: 20.6 µM [falling, single point]"
6,O=C(Nc1cccc(S(=O)(=O)NC2=NCCC2)c1)c1ccc(C(F)(F)F)cc1,active: 18.4 µM
7,O=C(NCc1ccco1)C1CCN(c2nc3ccccc3n2Cc2ccc(F)cc2)CC1,"inconclusive: 23.1 µM [falling, single point]"
8,CCC1Nc2ncnc(N3CCc4ccccc4C3)c2N(Cc2ccc(Cl)cc2)C1=O (centres undefined),inactive
9,CCCCn1c(N)c(N(CC)C(=O)C2CCC2)c(=O)[nH]c1=O,inactive
10,CC(=O)Nc1ccc(C(=O)Nc2cc(C)on2)cc1,"inconclusive: 5.17 µM [activator, full curve, poor fit]"
11,CCCCCC(=O)N/N=C(\C)c1ccc(N2CCCCC2)cc1,"inconclusive: 1.3 µM [activator, full curve, poor fit]"
12,Cc1ccc(C)c(NC(=O)c2ccccc2NS(=O)(=O)c2cc([N+](=O)[O-])ccc2C)c1,"inconclusive: 4.61 µM [falling, full curve, poor fit]"
13,COc1cccc(C2CC(c3ccc(C)cc3)=NN2C(=O)c2ccccc2F)c1OC (centres undefined),"inconclusive: 16.4 µM [falling, single point]"
14,COc1ccc(NC(=O)CN(C)CC(=O)Nc2cccc(S(=O)(=O)N(C)c3ccccc3)c2)cc1,"inconclusive: 23.1 µM [falling, partial curve, poor fit]"
15,Cn1c(SCC(=O)c2ccc3c(c2)OCCO3)nnc1C(F)(F)F,inactive
16,CC(Cc1ccccc1)NC(=S)CN1CCCC1=S (centres undefined),"inconclusive: 23.1 µM [falling, partial curve, poor fit]"
17,CCOC(=O)c1c(Nc2ccc(C)c(C)c2)nnc(-c2ccccc2)c1-c1ccccc1,inactive
18,CCN1CCc2c(C#N)c(N3CCCCC3)nc(NCc3ccccc3)c2C1,"inconclusive: 16.4 µM [activator, partial curve, poor fit]"
19,CC(=NC1CCCC1)c1c(C)[nH]n(-c2nc3ccccc3s2)c1=O,"inconclusive: 0.116 µM [activator, full curve]"

# Entries listed so far that contain an NH in an aromatic ring, in the order listed:
row,Structure (SMILES),Potency
9,CCCCn1c(N)c(N(CC)C(=O)C2CCC2)c(=O)[nH]c1=O,inactive
19,CC(=NC1CCCC1)c1c(C)[nH]n(-c2nc3ccccc3s2)c1=O,"inconclusive: 0.116 µM [activator, full curve]"
